Measured data: PubChem BioAssay AID504784 (Drosophila RNAi Screening Center, 2011)
Purpose: 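Search for regulators of lipid droplet storage in oleate-fed fly cells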 (primary screen). Cells: Drosophila Kc167 embryonic cells. Knock-down reagent: long dsRNA against Drosophila genes, about 250 ng dsRNA per well. Duration: 4 days. Conditions: cells fed 400 µM oleic acid bound to BSA. Detection: 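Cells imaged and segmented; ratio of lipid droplet area to nuclear area, log-transformed, then normalised as a B-score over the screen; higher means more stored lipid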. Direction: droplet/nuclear area B-score: higher = more stored lipid (overstorage).
In all, the deposit lists about 17,000 reagents; below is an unselected part of those that have a named target and a result. 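Each column is one replicate's B-score; the combined score over replicates was not deposited, so single values may mislead.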 The numbers tell different reagents against one gene apart. Names joined by + are all predicted targets of the reagent. Not all columns of the deposit are shown.

predicted target	reagent no.	droplet/nuclear area B-score, replicate 1	droplet/nuclear area B-score, replicate 2
retn	1	0.248	0.0493
Crtc	1	-0.856	-2.63
Crtc	2	0.022	0.962
Dhrs4	1	-0.179	0.0473
CG7299	1	0.685	-3.1
Gmd	1	0.763	2.16
Noa36	1	1.4	
Rh3	1	0.549	0.382
SNRPG	1	-1.92	-0.182
wtrw	1	4.15	-0.371
wtrw	2	2.5	2.88
Mal-B1	1	3.2	1.68
Naa40	1	0.0457	
CG18213	1	-1.13	-1.13
CG13689	1	0.601	-0.79
msl-3	1	0.679	-0.945
shop	1	-0.297	-1.4
CG31924	1	-1.11	-2.69
CG33523	1	0.0785	-1.28
CG33523	2	0.569	0.787
CG6052	1	-0.174	0.213
faf	1	1.71	0.809
CG43740	1	-0.583	-0.783
CG43740	2	-1.41	0.38
teq	1	-0.423	0.0741
teq	2	0.37	-0.133
teq	3	-0.954	-0.711
Ir31a	1	0.384	-0.0702
AP-2mu	1	0.539	1.21
CG32371	1	1.58	0.597
CG9825	1	-0.517	0.135
CG12857	1	-0.0183	0.984
Dred	1	-0.102	-0.475
Dred	2	-0.183	0.701
CG31926	1	0.0108	1.73
lncRNA:CR32385	1	-0.359	1.29
CG42354 + CG42353	1	4.32	2.93
NC2alpha	1	0.744	-0.495
CG3704	1	0.519	-1.92
CG3704	2	0.174	0.654
nompC	1	-0.694	1.38
form3	1	0.00272	-0.409
form3	2	1.29	-0.0754
form3	3	0.746	-0.134
Rhau	1	-2.43	-0.688
Rab4 + CG42239	1	-0.617	0.903
CG4783	1	0.0478	-0.439
Kul	1	-1.46	1.04
Sec6	1	-0.0176	
CG13720	1	-0.723	-0.343
Or85d	1	-0.205	0.0419
CG7203	1	0.401	-0.954
Mur89F	1	-0.0053	-0.0754
Nup98-96	1	0.092	-0.0798
Nup98-96	2	0.777	0.437
Jupiter	1	-2.92	2.51
Jupiter	2	-2.65	-0.934
Jupiter	3	1.62	-0.991
BEAF-32	1	1.18	-1.47
nolo	1	0.213	-0.455
nolo	2	-0.00229	-2.25
nolo	3	-0.306	0.536
CG13069	1	0.445	0.0727
CG14490	1	0.452	1.25
CG15096	1	-1.21	
Cpr12A	1	2.12	-0.0184
obst-H	1	-0.56	-0.505
obst-H	2	-0.479	-2.11
CCHa1-R	1	0.2	0.356
CCHa1-R	2	-0.0906	-0.359
eIF2alpha	1	1.87	2.47
Prosbeta6	1	-0.932	0.0464
Vha100-4	1	0.246	0.528
inaE	1	-0.156	-0.561
inaE	2	-0.829	1.5
inaE	3	0.531	-1.1
inaE	4	0.876	-0.0166
Gr64b	1	0.076	2.38
CG11404	1	0.00649	2.04
Hsp70Aa + Hsp70Bb + Hsp70Ba + 3 more	1	2.96	5.89
BORCS6	1	1.33	-0.646
T48	1	-0.857	2.44
Gr64a	1	1.74	0.00611

Targets above whose target name starts with W or w (2):
predicted target	reagent no.	droplet/nuclear area B-score, replicate 1	droplet/nuclear area B-score, replicate 2
wtrw	1	4.15	-0.371
wtrw	2	2.5	2.88
